Results from publication PMC2935968.
Positions count from the first letter of the chain named. These are yes or no findings as the source states them, for the method shown. Some entries that bind do so weakly or less than the wild type. For some of these results: Where a sequence is shown, tags or fusion partners need not be part of it.

Experiments:
[1] = target: GST-Rar1 (wild type) (Arabidopsis thaliana) (UniProt Q9SE33); assay: pull-down; GST-Rar1 constructs as bait, Hsp90 and Sgt1 both present; both purified
[2] = target: T1, GST-Rar1 K45E (Arabidopsis thaliana) (UniProt Q9SE33); assay: as above
T1 sequence: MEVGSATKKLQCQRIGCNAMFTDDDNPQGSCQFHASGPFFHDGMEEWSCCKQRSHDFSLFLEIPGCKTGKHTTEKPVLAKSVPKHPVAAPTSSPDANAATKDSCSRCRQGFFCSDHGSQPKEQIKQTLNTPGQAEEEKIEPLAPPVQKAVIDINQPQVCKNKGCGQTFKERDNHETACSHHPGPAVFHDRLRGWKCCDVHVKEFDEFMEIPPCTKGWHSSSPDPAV

[3] = target: GST-Rar1 (wild type) (Arabidopsis thaliana) (UniProt Q9SE33); assay: pull-down; GST-Rar1 as bait, Hsp90, untagged Rar1 and Sgt1-CS present; both purified
[4] = target: GST-Rar1 (wild type) (Arabidopsis thaliana) (UniProt Q9SE33); assay: pull-down; GST-Rar1 as bait, Hsp90, isolated CHORDI added in competition (Figure S4C); both purified
[5] = target: GST-Rar1 (wild type) (Arabidopsis thaliana) (UniProt Q9SE33); assay: pull-down; GST-Rar1 as bait, Hsp90, increasing amounts of untagged Rar1 in competition; both purified
[6] = target: GST-Rar1 (wild type) (Arabidopsis thaliana) (UniProt Q9SE33); assay: pull-down; GST-Rar1 constructs as bait, one partner alone (Hsp90 or Sgt1); recombinant proteins; conditions in the Supplemental Information; both purified
[7] = target: T2, GST-Rar1 W217T (Arabidopsis thaliana) (UniProt Q9SE33); assay: as above
T2 sequence: T1 sequence with E45K, W217T

- binding [1]: binds
- binding [2]: binds
- binding [3]: binds
- binding [4]: binds
- binding [5]: binds
- binding [6]: binds
- binding [7]: binds
Substance: Hsp90 (from UniProt Q7XJ80 1-700)
